These are yes or no findings as the source states them, for the method shown. Binding seen in cells or lysates may run through a third protein. A yes stands for co-enrichment or nearness to the bait. Other partners may have been found. Sequences can lack the tags named with a protein. Each block holds one molecule with its values, some of them ahead of it.
Target: T1, FLAG–FLCN (amino-terminally FLAG-tagged folliculin) (UniProt Q8NFG4)
T1 sequence: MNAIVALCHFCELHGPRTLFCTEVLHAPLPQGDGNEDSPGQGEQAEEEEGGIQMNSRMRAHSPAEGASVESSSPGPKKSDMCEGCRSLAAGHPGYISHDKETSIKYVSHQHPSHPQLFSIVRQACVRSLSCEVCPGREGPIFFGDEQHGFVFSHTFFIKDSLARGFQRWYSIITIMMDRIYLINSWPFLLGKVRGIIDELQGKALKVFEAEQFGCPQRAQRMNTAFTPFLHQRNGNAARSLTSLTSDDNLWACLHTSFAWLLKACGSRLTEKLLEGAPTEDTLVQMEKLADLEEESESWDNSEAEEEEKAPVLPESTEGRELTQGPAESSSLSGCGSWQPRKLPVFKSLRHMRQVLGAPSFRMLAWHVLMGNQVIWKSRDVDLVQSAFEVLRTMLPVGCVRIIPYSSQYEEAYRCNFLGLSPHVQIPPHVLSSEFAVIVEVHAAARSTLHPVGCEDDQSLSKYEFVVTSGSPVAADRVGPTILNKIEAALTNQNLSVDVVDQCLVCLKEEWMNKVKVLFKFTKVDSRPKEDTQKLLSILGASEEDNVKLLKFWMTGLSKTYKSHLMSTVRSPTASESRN
Test: affinity purification with mass spectrometry; FLAG–FLCN transiently expressed in HEK293, immunoprecipitated with anti-FLAG M2 affinity gel; gel bands, MALDI–time of flight

Sequences of proteins named here, by UniProt entry; tags and fusion partners are left off.
UniProt Q9UNE7: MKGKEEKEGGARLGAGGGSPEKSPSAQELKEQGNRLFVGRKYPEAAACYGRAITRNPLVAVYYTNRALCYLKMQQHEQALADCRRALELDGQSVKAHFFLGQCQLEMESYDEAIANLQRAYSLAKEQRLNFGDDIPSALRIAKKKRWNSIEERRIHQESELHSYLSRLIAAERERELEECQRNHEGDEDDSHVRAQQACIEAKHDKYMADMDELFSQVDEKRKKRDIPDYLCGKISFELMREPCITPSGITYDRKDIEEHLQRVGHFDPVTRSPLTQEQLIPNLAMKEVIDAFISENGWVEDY
UniProt Q99832: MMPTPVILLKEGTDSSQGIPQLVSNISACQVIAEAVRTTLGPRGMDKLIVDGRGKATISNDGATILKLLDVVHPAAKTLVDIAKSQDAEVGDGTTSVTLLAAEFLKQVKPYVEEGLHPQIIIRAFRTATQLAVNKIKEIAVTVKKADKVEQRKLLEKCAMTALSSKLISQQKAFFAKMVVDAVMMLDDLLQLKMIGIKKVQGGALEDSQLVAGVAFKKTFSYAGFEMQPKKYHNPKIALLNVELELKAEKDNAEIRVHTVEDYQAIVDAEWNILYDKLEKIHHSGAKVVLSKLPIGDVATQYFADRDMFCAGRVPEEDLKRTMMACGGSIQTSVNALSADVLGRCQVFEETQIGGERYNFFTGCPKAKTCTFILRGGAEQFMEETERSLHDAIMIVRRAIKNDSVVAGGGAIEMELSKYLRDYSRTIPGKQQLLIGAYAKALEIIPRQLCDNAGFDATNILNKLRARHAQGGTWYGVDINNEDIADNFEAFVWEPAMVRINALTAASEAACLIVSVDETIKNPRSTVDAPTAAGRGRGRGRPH
UniProt P50990: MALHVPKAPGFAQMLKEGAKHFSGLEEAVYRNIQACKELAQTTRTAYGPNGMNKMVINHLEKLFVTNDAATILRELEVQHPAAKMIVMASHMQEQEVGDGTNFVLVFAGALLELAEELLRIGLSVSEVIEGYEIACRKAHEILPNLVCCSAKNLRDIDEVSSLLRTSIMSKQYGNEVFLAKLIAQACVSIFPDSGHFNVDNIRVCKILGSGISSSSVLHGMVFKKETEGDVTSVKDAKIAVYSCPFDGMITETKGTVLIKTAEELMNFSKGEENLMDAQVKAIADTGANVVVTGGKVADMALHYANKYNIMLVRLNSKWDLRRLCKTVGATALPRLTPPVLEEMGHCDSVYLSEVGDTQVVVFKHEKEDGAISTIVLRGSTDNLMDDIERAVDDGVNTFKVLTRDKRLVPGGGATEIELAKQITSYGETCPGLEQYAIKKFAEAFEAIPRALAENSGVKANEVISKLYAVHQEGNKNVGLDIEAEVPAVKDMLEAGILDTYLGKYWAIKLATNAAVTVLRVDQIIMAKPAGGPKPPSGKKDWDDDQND
UniProt O95433: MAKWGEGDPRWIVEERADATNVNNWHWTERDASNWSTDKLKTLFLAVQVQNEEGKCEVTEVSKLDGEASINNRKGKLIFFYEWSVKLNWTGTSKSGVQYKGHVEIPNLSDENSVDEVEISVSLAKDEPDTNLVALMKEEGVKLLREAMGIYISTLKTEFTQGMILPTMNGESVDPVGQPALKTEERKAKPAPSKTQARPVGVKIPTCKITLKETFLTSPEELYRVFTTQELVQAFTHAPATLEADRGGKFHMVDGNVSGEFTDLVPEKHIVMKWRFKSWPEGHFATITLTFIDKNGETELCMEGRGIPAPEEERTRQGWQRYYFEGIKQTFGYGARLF

- binding: binds
Molecule: CHIP, endogenous (from UniProt Q9UNE7 1-303)

- binding: binds
Molecule: CCT7, endogenous (from UniProt Q99832 1-543)

- binding: binds
Molecule: CCT8, endogenous (from UniProt P50990 1-548)

- binding: binds
B1: CCT2, endogenous (protein, UniProt P78371 1-535)
chain: MASLSLAPVNIFKAGADEERAETARLTSFIGAIAIGDLVKSTLGPKGMDKILLSSGRDASLMVTNDGATILKNIGVDNPAAKVLVDMSRVQDDEVGDGTTSVTVLAAELLREAESLIAKKIHPQTIIAGWREATKAAREALLSSAVDHGSDEVKFRQDLMNIAGTTLSSKLLTHHKDHFTKLAVEAVLRLKGSGNLEAIHIIKKLGGSLADSYLDEGFLLDKKIGVNQPKRIENAKILIANTGMDTDKIKIFGSRVRVDSTAKVAEIEHAEKEKMKEKVERILKHGINCFINRQLIYNYPEQLFGAAGVMAIEHADFAGVERLALVTGGEIASTFDHPELVKLGSCKLIEEVMIGEDKLIHFSGVALGEACTIVLRGATQQILDEAERSLHDALCVLAQTVKDSRTVYGGGCSEMLMAHAVTQLANRTPGKEAVAMESYAKALRMLPTIIADNAGYDSADLVAQLRAAHSEGNTTAGLDMREGTIGDMAILGITESFQVKRQVLLSAAEAAEVILRVDNIIKAAPRKRVPDHHPC

More lines, now with the values behind:

Molecule: Aha1, endogenous (from UniProt O95433 1-338)
- binding: binds

Molecule: HOP, endogenous (from UniProt P31948 1-543)
- binding: binds
